Measurements from the supplement of paper PMC9015667.
Structures can show the parent of a compound that is named as a salt. Some of the results follow. Single values are uncertain, as repeats are few or missing.

Key:
Assay in all cases: reduction in cell viability relative to untreated/vehicle; higher = more growth inhibition
Settings in all cases: 200 nM; 72 h
[1] = system: M229P (parental melanoma line)
[2] = system: M229R (matched melanoma line resistant to BRAF inhibitors)
[3] = system: M238P (parental melanoma line)
[4] = system: M238R (matched melanoma line resistant to BRAF inhibitors)
[5] = system: M249P (parental melanoma line)
[6] = system: M249R (matched melanoma line resistant to BRAF inhibitors)
[7] = system: UACC62P (parental melanoma line)
[8] = system: UACC62R (matched melanoma line resistant to BRAF inhibitors)

Measured: reduction in cell viability

Cc1c(CN2CCN(S(C)(=O)=O)CC2)sc2c(N3CCOCC3)nc(-c3cnc(N)nc3)nc12
15.5%: [1]
24.2%: [2]
42.6%: [7]
42.2%: [8]
44.1%: [4]
27.8%: [6]
22.2%: [5]
57.4%: [3]

CC12CC3CC(C)(C1)CC(N)(C3)C2 [Memantine]
< 0%: all assays above

COc1cc(F)c(F)c(Nc2ccc(I)cc2F)c1NS(=O)(=O)C1(C[C@H](O)CO)CC1
7.84%: [7]
< 0%: all other assays above

c1nc2c(NC3CCCCC3)nc(Nc3ccc(N4CCOCC4)cc3)nc2[nH]1 [Reversine]
9.2%: [6]
7.76%: [3]
42.5%: [8]
1.69%: [4]
< 0%: all other assays above

CC1=CC(=O)c2ccccc2C1=O [Menadione]
6.06%: [5]
18.6%: [7]
< 0%: all other assays above

COc1cc2c(NC3CCN(C(C)C)CC3)nc(C3CCCCC3)nc2cc1OCCCN1CCCC1
14.1%: [7]
4.99%: [2]
15.5%: [6]
0.27%: [1]
< 0%: all other assays above

CCOC(=O)c1ccc(OC(=O)CCCCCNC(=N)N)cc1 [Gabexate mesilate]
< 0%: all assays above

O=C(Nc1nc2ccc(NC(=O)C34CC5CC(CC(C5)C3)C4)cc2s1)c1ccccc1
28.9%: [7]
4.95%: [2]
8.87%: [8]
< 0%: all other assays above

CCc1cc2c(cc1N1CCC(N3CCOCC3)CC1)C(C)(C)c1[nH]c3cc(C#N)ccc3c1C2=O
27.1%: [8]
2.61%: [5]
5.85%: [4]
3.15%: [7]
< 0%: all other assays above

N#CC(=Cc1ccc(O)c(O)c1)C(=O)NCc1ccccc1 [Tyrphostin B42]
14.2%: [7]
< 0%: all other assays above

COC1=C(OC)C(=O)C(C/C=C(\C)CC/C=C(\C)CC/C=C(\C)CC/C=C(\C)CC/C=C(\C)CC/C=C(\C)CC/C=C(\C)CC/C=C(\C)CC/C=C(\C)CCC=C(C)C)=C(C)C1=O [Ubidecarenone]
< 0%: all assays above

CN(c1ccccc1CNc1nc(Nc2ccc3c(c2)CC(=O)N3)ncc1C(F)(F)F)S(C)(=O)=O
< 0%: all assays above

O=C(O)c1cccnc1Nc1cccc(C(F)(F)F)c1 [Niflumic acid]
6.82%: [7]
< 0%: all other assays above

CC(=O)CC(c1ccccc1)c1c(O)c2ccccc2oc1=O (configuration not stated) [Warfarin sodium]
< 0%: all assays above

Cc1cc(NS(=O)(=O)c2ccc(N)cc2)no1 [Sulfamethoxazole]
< 0%: all assays above

COc1cc(Nc2ncc3c(n2)-c2ccc(Cl)cc2C(c2c(F)cccc2OC)=NC3)ccc1C(=O)O [Alisertib]
67.5%: [8]
20.8%: [4]
29.3%: [3]
22%: [7]
12.5%: [6]
< 0%: all other assays above

O=C(Nc1ccccc1-c1cn2c(CN3CCNCC3)csc2n1)c1cnc2ccccc2n1
2.81%: [7]
< 0%: all other assays above

c1cc(CN2CCCNCCNCCCNCC2)ccc1CN1CCCNCCNCCCNCC1 [Plerixafor hydrochloride]
< 0%: all assays above

CN1[C@@H]2CC[C@H]1C[C@@H](OC(=O)c1c[nH]c3ccccc13)C2 [Tropisetron]
4.47%: [5]
< 0%: all other assays above

CCCNCC(O)COc1ccccc1C(=O)CCc1ccccc1 (configuration not stated) [Propafenone hydrochloride]
5.75%: [6]
11.1%: [7]
< 0%: all other assays above

Cc1nc2n(c(=O)c1CCN1CCC(c3noc4cc(F)ccc34)CC1)CCCC2 [Risperidone???]
2.93%: [7]
< 0%: all other assays above

COc1cc(Cl)cn2c(-c3cccc(NC4CNC4)n3)cnc12
< 0%: all assays above

Cc1ccccc1C(C(=O)NC1CCCC1)N(C(=O)Cn1cnc2ccccc21)c1cccc(F)c1 (configuration not stated)
< 0%: all assays above

C=CC[N+]1([C@H]2C[C@H]3[C@@H]4CC[C@H]5C[C@H](O)[C@@H](N6CCOCC6)C[C@]5(C)[C@H]4CC[C@]3(C)[C@H]2OC(C)=O)CCCC1 [Rocuronium bromide]
< 0%: all assays above

C[C@@]1(c2cc(-c3cncnc3)c(F)cc2F)CCSC(N)=N1
3.95%: [7]
< 0%: all other assays above

CO/N=C(\C(=O)N[C@@H]1C(=O)N2C(C(=O)OCOC(=O)C(C)(C)C)=C(/C=C\c3scnc3C)CS[C@H]12)c1csc(N)n1 [Cefditoren pivoxil]
< 0%: all assays above

N#Cc1ccc(C(c2ccc(C#N)cc2)n2cncn2)cc1 [Letrozole]
< 0%: all assays above

CN1CCN(c2nc(C3=C(c4c[nH]c5ccccc45)C(=O)NC3=O)c3ccccc3n2)CC1 [Sotrastaurin]
< 0%: all assays above

CCc1cccc2c3c([nH]c12)C(CC)(CC(=O)O)OCC3 (configuration not stated) [Etodolac]
< 0%: all assays above

COC(=O)Nc1nc2cc(C(=O)c3ccc(F)cc3)ccc2[nH]1 [Flubendazole]
5.17%: [1]
11.2%: [8]
21.6%: [3]
22.9%: [4]
10.6%: [7]
9.51%: [6]
37.6%: [2]
< 0%: [5]

NC(=O)Nc1sc(-c2ccc(F)cc2)cc1C(N)=O
6.77%: [6]
< 0%: all other assays above

CS(=O)(=O)c1ccc(-c2cnc(N)c(C(=O)Nc3ccccc3)n2)cc1
< 0%: all assays above

Nc1ccccc1NC(=O)c1ccc(CNc2nccc(-c3cccnc3)n2)cc1 [Mocetinostat]
7.34%: [6]
35.3%: [8]
21.7%: [7]
14.7%: [2]
4.67%: [1]
36.2%: [3]
< 0%: [4] | [5]

NCCCC(O)(P(=O)(O)O)P(=O)(O)O [Alendronate]
5.31%: [7]
< 0%: all other assays above

CN(C1CCc2c(c3ccccc3n2CC(=O)O)C1)S(=O)(=O)c1ccc(F)cc1 (configuration not stated)
10.1%: [6]
< 0%: all other assays above

O=C(O)c1cc(/N=N/c2ccc(S(=O)(=O)Nc3ccccn3)cc2)ccc1O [Sulfasalazine]
< 0%: all assays above

NC(=O)c1noc([C@H](CCCC2CCCCC2)CC(=O)NO)n1
1.61%: [6]
< 0%: all other assays above

O=c1c(O)c(-c2cc(O)c(O)c(O)c2)oc2cc(O)cc(O)c12 [Myricetin]
< 0%: all assays above

CCC(=O)N[C@H]1CC[C@H](C(=O)N(C)c2ccc(-c3nc4ccccc4o3)cc2)C1
< 0%: all assays above

C[C@]12CC[C@@H]3c4ccc(O)cc4CC[C@H]3[C@@H]1CC[C@@H]2O [beta-Estradiol]
< 0%: all assays above

CN1CCN2c3ncccc3Cc3ccccc3C2C1 (configuration not stated) [Mirtazapine]
< 0%: all assays above

O=C1NC(=O)C(=Cc2ccc(-c3ccc(F)cc3)o2)S1 (stereo in doubt)
2.96%: [7]
< 0%: all other assays above

CC[C@@]1(O)C[C@H](O[C@H]2C[C@H](N(C)C)[C@H](O[C@H]3C[C@H](O)[C@H](O[C@H]4CCC(=O)[C@H](C)O4)[C@H](C)O3)[C@H](C)O2)c2c(cc3c(c2O)C(=O)c2c(O)cccc2C3=O)[C@H]1C(=O)OC [Aclarubicin]
20%: [2]
15.5%: [4]
19.1%: [1]
42.8%: [8]
18.3%: [7]
33%: [6]
11.3%: [3]
2.26%: [5]

CC/C(=C(\c1ccccc1)c1ccc(OCCN(C)C)cc1)c1ccccc1 [Tamoxifen]
5.91%: [7]
< 0%: all other assays above
